Reference: US20100331424A1, “Use of Axomadol for Treatment of Arthrosis Pain” (Gruenenthal GmbH, priority 2007, published 2010)

System: CFA-hyperalgesia (CFA-HA)
Experiment: Antihyperalgesic effect in the chronic inflammation pain model (Complete Freund's Adjuvant, electronic von Frey)
Format: in vivo, Sprague Dawley rats
Settings: rat, IV
Protocol: The test to determine the antihyperalgesic effect of axomadol in chronic inflammation pain was conducted on rats in the Complete Freund's Adjuvant animal model (CFA).
A model for chronic inflammation represents the monoarthritis triggered by the Complete Freund's Adjuvant (CFA). By injecting a small quantity of CFA (100 μg M. tuberculosis) into the back paw a local inflammatory reaction restricted in time to 2-4 weeks occurred.
Sprague Dawley rats from a commercial breeder (Janvier, Belgium) having a weight of 140-160 g were used as test animals. The CFA-HA was induced in rats by subplantar injection of CFA (100 μl of the 1 mg/ml mycobacteria (heat-killed M. tuberculosis)/oil suspension (IFA; Difco)) into the back paw (ipsilaterally). The injection day was defined as day 0 (d 0).
Hyperalgesia to a mechanical tactile stimulus was detected by means of an electronic von Frey measuring instrument (Somedic Electronic von Frey System, Somedic Sales AB, Horby, Sweden). The paw was stimulated by subplantar application. To quantify the sensitivity of both the ipsi- and the contralateral paw to the mechanical stimulus, the paw pull-away threshold was given in grams of applied pressure. The median was formed from the four measured values per paw. The pull-away threshold of the ipsi- and contralateral paw was determined on day 1 after CFA injection before (=initial value) and at different times (15, 20 and 60 minutes) after substance dose (measured value). The efficacy of a substance was calculated as % inhibition of hyperalgesia as follows:
% inhibition of HA=(1−HA measured value/HA initial value)×100
HA initial value=pull away threshold contralateral−pull away threshold ipsilateral before substance dose
HA measured value=pull away threshold contralateral−pull away threshold ipsilateral after substance dose
In total, 10 rats were used in each test animal group. The mean±SEM was calculated from the medians of the individual animals. The significance calculation was conducted using the two-factor analysis of the variance (ANOVA) for repeated measurements. In the case of a significant treatment effect, a comparison in pairs was conducted at different measurement times by a Fisher's significance test, followed by a post hoc Dunnett test. The results were assessed as statistically significant at p<0.05.
In order to determine the maximum efficacy, the substance was administered intravenously (IV) up to the maximum possible dose.

With `COc1cccc(C2(O)CCCCC2CN(C)C)c1` (stereo not shown) [Tramadol] the “% Inhibition of HA” value (dose 2.15 mg/kg) was 5%, the “% Inhibition of HA” value (dose 4.64 mg/kg) was 29% and the “% Inhibition of HA” value (dose 6.81 mg/kg) was 28%. The “Max. effect (maximum % inhibition of hyperalgesia)” value (dose of maximum: axomadol-HCl 10, morphine 2.15, oxycodone 0.681, tramadol 4.64 mg/kg) was “Max. effect = 29% at 4.64 mg/kg”.
